Results are given in words; binding and its absence hold for the method and conditions named. In cells and extracts the contact can be indirect. Here binding means that the protein was enriched with, or labelled near, the bait; the list need not be complete.
What was measured:
Experiment in all cases: affinity purification with mass spectrometry
[1] = biological target: HA-tagged full-length Usutu virus (USUV) non-structural protein 5 (NS5) (Usutu virus)
[2] = biological target: HA-tagged full-length Zika virus (ZIKV) non-structural protein 5 (NS5) (Zika virus)
[3] = biological target: HA-tagged full-length West Nile virus (WNV) non-structural protein 5 (NS5) (West Nile virus)

Measured: binding

B1: Sideroflexin-1 (SFXN1) (protein, UniProt Q9H9B4 1-322)
chain: MSGELPPNINIKEPRWDQSTFIGRANHFFTVTDPRNILLTNEQLESARKIVHDYRQGIVPPGLTENELWRAKYIYDSAFHPDTGEKMILIGRMSAQVPMNMTITGCMMTFYRTTPAVLFWQWINQSFNAVVNYTNRSGDAPLTVNELGTAYVSATTGAVATALGLNALTKHVSPLIGRFVPFAAVAAANCINIPLMRQRELKVGIPVTDENGNRLGESANAAKQAITQVVVSRILMAAPGMAIPPFIMNTLEKKAFLKRFPWMSAPIQVGLVGFCLVFATPLCCALFPQKSSMSVTSLEAELQAKIQESHPELRRVYFNKGL
binds: [1] | [2] | [3]

Reference: doi:10.64898/2025.12.05.692556
